{
  "source": "patent US20170065564A1",
  "about": "“BIS-CYCLIC GUANIDINE COMPOUND COMPOSITIONS, METHODS OF USE AND TREATMENT THEREOF” (University of South Florida, priority 2014, published 2017)",
  "system": "human A549 cells",
  "experiment": "Cytotoxicity assay (MTT)",
  "assay_type": "cell-based",
  "details": "A549 IC50 divided by MIC",
  "experimental": "Cytotoxicity assays were performed using human A549 cells (adenocarcinomic human alveolar epithelial cells), as described by us previously.^44 Briefly, cells were cultured in F-12K Nutrient mixture (Kaighn's Modification) media containing L-glutamine, supplemented with 10% fetal bovine serum and 1% penicillin-streptomycin for 3 days at 37° and 5% CO2. Cells were then diluted to 1.0×10^5 ml^−1 using F-12K supplemented media, and added to 96 well tissue culture plates at a volume of 100 μl. Plates were incubated for 24 hours at 37° C. and 5% CO2, allowing the cells to adhere to the plastic. […] Plates were then incubated for 48 hours at 37° C. and 5% CO2. After 48 hours the media was removed, and new media added containing MTT (3-(4, 5-dimethylthiazol-2-yl)-2, 5-diphenyltetrazolium bromide), followed by incubation for four hours at 37° C. and 5% CO2. After 4 h, 50 μl of media was removed, replaced with DMSO and incubated for ten minutes at 37° C. in order to solubilize any formazan produced. A Biotek plate reader was used to measure the absorbance of formazan production at […], and IC50 values were determined for each of the five compounds. Front runners were solvated in 45% w/v (2-hydroxypropyl)-β-cyclodextrin in water for these studies; which was also used alone as a negative control. IC50 values were determined for each compound by comparison to vehicle only controls, to assess toxicity to human cells.",
  "data": [
    {"compound": "CCCCCCCN1C(=N)N(CCCC[C@H]2CNC(=N)N2CCc2cccc(C(F)(F)F)c2)C[C@@H]1CCCC", "note": "[Compound 1]", "values": [
      {"measurement": "AI (Activity Index, IC50/MIC)", "value": 100}
    ]},
    {"compound": "CCCC[C@H]1CN(CCCC[C@H]2CNC(=N)N2CCc2cccc(C(F)(F)F)c2)C(=N)N1CCCCC1CCCCC1", "note": "[Compound 2, (S)-4-butyl-3-(4-cyclohexylbutyl)-1-(4-((S)-2-imino-3-(3-(trifluoromethyl)phenethyl)imidazolidin-4-yl)butyl)imidazolidin-2-imine]", "values": [
      {"measurement": "AI (Activity Index, IC50/MIC)", "value": 81.8}
    ]},
    {"compound": "CCCCCCCN1C(=N)N(CCCC[C@H]2CNC(=N)N2CCc2cccc(C(F)(F)F)c2)C[C@@H]1CC1CCCCC1", "note": "[Compound 7]", "values": [
      {"measurement": "AI (Activity Index, IC50/MIC)", "value": 43.1}
    ]},
    {"compound": "CCCCCCCN1C(=N)N(CCCC[C@H]2CNC(=N)N2CCCCC2CCCCC2)C[C@@H]1CC1CCCCC1", "note": "[Compound 16]", "values": [
      {"measurement": "AI (Activity Index, IC50/MIC)", "value": "> 139"}
    ]},
    {"compound": "CCCCCCCN1C(=N)N(CCCC[C@H]2CNC(=N)N2CCC23CC4CC(CC(C4)C2)C3)C[C@@H]1CCCC", "note": "[Compound 19]", "values": [
      {"measurement": "AI (Activity Index, IC50/MIC)", "value": 87.6}
    ]}
  ]
}
